The record followed here is publication PMC13109126.

Results are given in words; binding and its absence hold for the method and conditions named. In cells and extracts the contact can be indirect. Some binding calls cover weakened binding; strength is not graded here. Tags and fused reporters may be left off the sequences shown.

The target in this test is T1, PYR1-like 8 (PYL8) fused to cLUC (Arabidopsis thaliana) (UniProt Q9FGM1).
T1 sequence: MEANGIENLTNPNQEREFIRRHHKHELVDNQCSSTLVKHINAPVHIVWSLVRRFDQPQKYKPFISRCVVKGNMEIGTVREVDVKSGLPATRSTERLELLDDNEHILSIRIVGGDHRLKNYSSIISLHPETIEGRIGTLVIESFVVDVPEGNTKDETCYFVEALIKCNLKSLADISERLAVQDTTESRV
Nature of the test: split reporter; split firefly luciferase complementation (SplitLUC) in N. benthamiana leaves co-infiltrated with nLUC and cLUC fusions and TagRFP; 5 mM D-luciferin sprayed, luminescence imaged with NightSHADE evo CCD (20 s exposure); luminescence normalised to TagRFP fluorescence, n = 6 leaves.

B1: DET1- and DDB1-ASSOCIATED 1 (DDA1) fused to nLUC (protein, UniProt Q9FFS4 1-101)
chain: MASILGDLPSFDPHNFSQHRPSDPSNPSKMVPTTYRPTHNRTLPPPDQVITTEVKNILIRSFYQRAEEKLRPKRPATDHLAAEHVNKHFRAASSSSSTQGL
As to B1, the binding entry is “binds”.
